The whole screen tested about 300,000 compounds, of which about 5,400 (1.8%) were called active. The shares of active, inactive and inconclusive entries below differ from those in the screen. Calls follow the shape of the full dose curve; tested in HEK293 cells. Where the call is inconclusive, the potency comes from a doubtful curve fit.
Experiment: qHTS for inhibitors of binding or entry into cells for Marburg Virus
Conditions: Marburg virus pseudotyped entry inhibition, cell reporter; series mostly up to 37.8 µM
Potency is read from the fitted curve at half-maximal effect.

Row | Structure (SMILES) | Potency
1 | O=C(COC(=O)c1ccc(Br)o1)Nc1ncc(Cl)cc1Cl | inconclusive: 1.12 µM [inhibitor, full curve, poor fit]
2 | CCOC(=O)N1CCN(C(=O)c2cc(COc3ccc4ncccc4c3)on2)CC1 | inconclusive: 11.2 µM [inhibitor, partial curve, poor fit]
3 | Cc1ccc(-c2cn(-c3ccc(SC(F)F)cc3)c3[n+]2CCC3)cc1 | inconclusive: 10 µM [inhibitor, partial curve]
4 | O=c1cnn(-c2ccc(Cl)cc2Cl)c(-c2ccccc2)c1 | inactive
5 | NNc1nc2sc3c(c2c(=O)n1C1CCCCC1)CCN(Cc1ccccc1)C3 | inactive
6 | COc1ccccc1NC(=O)Cn1cc(C(=O)c2ccco2)c2ccccc21 | inconclusive: 35.5 µM [inhibitor, single point]
7 | CC1(C)CC2(CC(c3cccs3)c3cc(Cl)c(O)cc3O2)NC(=S)N1 (stereo unspecified) | inconclusive: 35.5 µM [inhibitor, single point]
8 | Cc1ccc(C(=O)/C=C\Nc2ccc(C)c(C)c2)cc1 | inconclusive: 8.91 µM [inhibitor, partial curve]
9 | O=C(CSc1nc2ccccc2[nH]1)N/N=C/C=C/c1ccccc1[N+](=O)[O-] | inconclusive: 1 µM [activator, partial curve]
10 | COC(=O)c1ccccc1NC(=O)COC(=O)[C@H](C)NC(N)=O | inactive
11 | COc1cc2c(cc1OC)C(c1cc3ccc(C)cc3[nH]c1=O)N(C(=O)c1ccco1)CC2 (stereo unspecified) | inconclusive: 35.5 µM [inhibitor, partial curve, poor fit]
12 | COc1ccc(OCc2cc(C(=O)NC(C)Cn3cncn3)no2)c(Cl)c1 (stereo unspecified) | inconclusive: 6.31 µM [activator, full curve, poor fit]
13 | CSc1ccc(CN(C)C(=O)CNC(=O)c2sc3ccccc3c2Cl)cc1 | inconclusive: 3.98 µM [inhibitor, partial curve, poor fit]
14 | CCOc1ccc(N(CC)C(=O)c2cc3c(s2)-c2ccccc2OC3)cc1 | inactive
15 | CCOc1ccccc1Nc1nc(N)nc(CN2CCCCC2C)n1 (stereo unspecified) | inconclusive: 3.55 µM [inhibitor, single point]
16 | CCOCCCNC(=S)Nc1cc(C)cc(C)c1 | inconclusive: 6.31 µM [activator, single point]
17 | COCCCn1c(N)c(C(=O)NCc2ccco2)c2nc3ccccc3nc21 | inactive
18 | Cc1nn(-c2ccccc2)c(C)c1/C=N/n1cnnc1 | inactive
19 | CNC(=S)N/N=C/c1ccccc1OCC(=O)O | inactive
20 | O=C(NC1CCCCC1)C(=O)c1c(-c2ccccc2)[nH]c2ccccc12 | inactive
21 | O=c1c2ccccc2nc(/C=C/c2cccnc2)n1CCc1ccccc1 | inconclusive: 28.2 µM [inhibitor, single point]
22 | Oc1ccc(-c2nccc(-c3ccc(Cl)cc3Cl)n2)cc1 | inactive
23 | COC(=O)c1ccccc1NC(=S)NC(=O)CC(C)C | inactive

Row | Structure (SMILES) | Potency
24 | O=C(CC(=O)NC1CCCCC1)N/N=C/c1ccccc1Cl | inconclusive: 35.5 µM [activator, single point]
25 | Cc1cc(C)nc(N/N=C/c2ccc3c(c2)OCCO3)n1 | inactive
26 | CN(C(=O)C(Cl)Cl)C1CC2C=CC1C2 (stereo unspecified) | inconclusive: 6.31 µM [inhibitor, single point]
27 | Cc1ccc(CNC(=O)Cc2ccc(-n3cccc3)cc2)cc1 | inconclusive: 6.51 µM [inhibitor, single point]
28 | COc1cc(C(=O)NCCc2cc3c(OC)ccc(OC)c3[nH]c2=O)cc(OC)c1OC | inconclusive: 18.3 µM [activator, partial curve, poor fit]
29 | N#Cc1ccc(CSc2nnc(Cc3cccs3)n2Cc2ccco2)cc1 | inactive
30 | CCOC(=O)c1ccc(-n2ccnc2)c(NC(=O)c2cccc(Br)c2)c1 | inconclusive: 1.26 µM [activator, single point]
31 | N=c1c2c(n(Cc3ccc(Cl)c(Cl)c3)c3c1CCC3)CCCC2 | inconclusive: 10 µM [inhibitor, partial curve, poor fit]
32 | CCn1c(C)nc2cc(C(=O)N/N=C(\C)c3ccccc3O)ccc21 | inconclusive: 35.5 µM [inhibitor, single point]
33 | COc1cc(/C=N\NC(=O)c2sc(N)nc2C)cc(OC)c1OC | inconclusive: 2.24 µM [inhibitor, full curve, poor fit]
34 | N=C1C(c2nc3ccccc3s2)=C(O)CN1NC(=O)c1ccc([N+](=O)[O-])cc1 | inconclusive: 35.5 µM [inhibitor, single point]
35 | COc1ccc(NS(=O)(=O)c2ccc(C)c(C(=O)N(C)Cc3ccc(OC)cc3OC)c2)cc1 | inconclusive: 28.2 µM [inhibitor, single point]
36 | CC12CC3CC(C)(C1)CC(C(=O)NCc1ccco1)(C3)C2 | inactive
37 | CCOC(=O)c1cnn(-c2ccccc2)c1-n1cccc1C(=O)C(=O)Nc1ccc(F)cc1 | inconclusive: 5.62 µM [activator, single point]
38 | CC(C)(C)NC[C@H](O)c1cc(O)cc(O)c1 | inactive
39 | CCOc1ccccc1/C=N\Nc1cnn(Cc2ccccc2)c(=O)c1Cl | inconclusive: 3.98 µM [inhibitor, partial curve, poor fit]
40 | COc1cc(C(=O)Nc2ccccc2-c2nc(-c3ccc(C)cc3)no2)cc(OC)c1OC | inactive
41 | CCOc1ccc(N(CC(=O)NC2CCCCC2)C(=O)CCCC(=O)Nc2ccccn2)cc1 | inactive
42 | COc1ccc(NC(=O)c2cc(C)cc(C)c2)cc1[N+](=O)[O-] | inconclusive: 0.631 µM [inhibitor, full curve, poor fit]
43 | Cn1ccsc1=NC(=O)c1cccc(OC(F)F)c1 | inconclusive: 8.91 µM [activator, partial curve, poor fit]
44 | COCCC(=O)N1CCC(Oc2ccc(C(=O)NCCc3cnn(C)c3)cc2)CC1 | inactive
45 | O=C(CSc1ncccn1)NCCC1=CCCCC1 | inconclusive: 5.01 µM [activator, partial curve]
46 | COc1ccc(CC(=O)N2CCc3cc(OC)c(OC)cc3C2C)c(OC)c1 (stereo unspecified) | inconclusive: 11.2 µM [inhibitor, single point]

Some values from the entries so far:
Value for CC(C)(C)NC[C@H](O)c1cc(O)cc(O)c1 under Potency: inactive
Value for COc1cc(C(=O)NCCc2cc3c(OC)ccc(OC)c3[nH]c2=O)cc(OC)c1OC under Potency: inconclusive: 18.3 µM [activator, partial curve, poor fit]
